# Measured data: PubChem BioAssay AID686943 (Drosophila RNAi Screening Center, 2013)
# Test: 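Fly genes whose loss alters ERK activation after insulin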 (primary screen)
# Cell system: Drosophila S2R+ haemocyte-like cells expressing YFP-tagged ERK (Rolled)
# Reagent: long dsRNA against Drosophila genes
# Conditions: insulin stimulation versus unstimulated cells; dose and duration not given
# Measured: 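Per-plate z-scores of phospho-ERK immunostaining normalised to YFP-tagged ERK, measured with and without insulin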
# Scale: replicate 1, z-score of dpERK with insulin: higher = more active ERK per ERK-YFP after insulin
# In all, the deposit lists about 23,000 reagents; below is an unselected part of those that have a named target and a result. 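Extra replicates exist only for a retested subset of genes; insulin dose and duration not given; both raised and lowered dpERK matter.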 The numbers tell different reagents against one gene apart. A plus sign joins genes that one reagent is predicted to hit. Further read-outs or replicates are left out here. Not stated in the record: the amount of reagent, the time to read-out.
gene,dsRNA no.,"replicate 1, z-score of dpERK with insulin"
CG40198 (GeneID 3354922),1,-0.76
Dhc98D (GeneID 43379),1,-0.68
CG10801 (GeneID 31314),1,-0.8
CG12782 (GeneID 37685),1,0.17
CG12009 (GeneID 38405),1,-0.25
TkR86C (GeneID 41286),1,-0.42
Gr89a (GeneID 42007),1,-1.01
CG43071 (GeneID 12798340),1,0.59
CG34235 + CG30058 + CG34312,1,-3.04
mus302 (GeneID 39874),1,-1.37
CG14565 (GeneID 40423),1,0.17
CG13036 (retired record) (GeneID 39823),1,-0.25
Noc1 (GeneID 39240),1,0.09
plum (GeneID 43197),1,0.44
SerT (GeneID 37895),1,-1.74
CG14357 (GeneID 41716),1,-1.13
CG17974 (GeneID 37441),1,0.32
CG15109 (GeneID 37195),1,0.66
Rim2 (GeneID 33350),1,0.98
Rim2 (GeneID 33350),2,-0.36
Rim2 (GeneID 33350),3,0.16
CheA84a (GeneID 3771856),1,0.14
hll (GeneID 34822),1,-2.35
ds (GeneID 33245),1,-0.55
Muc30E (GeneID 2768931),1,-0.2
TwdlJ (GeneID 43206),1,0.6

Already shown: entries from further up.
gene,dsRNA no.,"replicate 1, z-score of dpERK with insulin"
Dhc98D (GeneID 43379),1,-0.68
CG10801 (GeneID 31314),1,-0.8
CG12782 (GeneID 37685),1,0.17
CG12009 (GeneID 38405),1,-0.25

The list goes on:
gene,dsRNA no.,"replicate 1, z-score of dpERK with insulin"
CG30281 (GeneID 246525),1,0.04
PolG1 (GeneID 34792),1,0.54
CG17328 (GeneID 34962),1,0.61
CG17328 (GeneID 34962),2,-0.31
Cyp4ac3 (GeneID 33756),1,0.31
CG14488 (GeneID 37030),1,-0.27
cic (GeneID 53560),1,-1.41
cic (GeneID 53560),2,-2.69
cic (GeneID 53560),3,0.35
cic (GeneID 53560),4,-1.14
Las (GeneID 40259),1,0.9
CG14797 (GeneID 31123),1,0.75
CG7702 (GeneID 42242),1,0.8
Slip1 (GeneID 43809),1,-0.29
CG15873 (GeneID 37898),1,0.17
CG10947 (GeneID 35309),1,0.13
HUWE1 (GeneID 32510),1,0.41
CG11986 (GeneID 41083),1,-0.65
ms(2)34Fe (GeneID 34833),1,0.38
CG30491 (GeneID 35704),1,0.99
CCDC53 (GeneID 34097),1,-0.01
Jon65Aiv (GeneID 38682),1,0.65
vari (GeneID 35343),1,-0.32
CG3528 (GeneID 33436),1,-1.19
CG14054 (GeneID 31172),1,-0.18
fzr2 (GeneID 37808),1,0.59
CG10257 (GeneID 36671),1,-0.35
CG42266 (GeneID 7354431),1,0.15
CG42266 (GeneID 7354431),2,0.56
CG4630 (GeneID 36458),1,0.66
CG7800 (GeneID 40963),1,0.31
